Reference: PubChem BioAssay AID1347423 (Functional Genomics Laboratory (NCATS/FGL), 2020)
The campaign covered roughly 52,000 sequences. About 210 (0.4%) were called active.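 Rule for the calls: active = gene whose silencing raises cell survival under the drug, median off-target-corrected z-score across its silencing RNAs 2 or more; inactive = the rest.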 The list shows a part of the results.

Assay: Resistance to Poly (ADP-Ribose) Polymerase inhibitor: Gene Identification via Genome-wide siRNA Screen
Conditions: mouse BRCA2 R2336H ES cells, olaparib, CellTiter-Glo viability; stronger effect = higher value
Outline: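 Genome-wide siRNA screen (3 siRNAs/gene, 20 nM) in mouse ES cells carrying hypomorphic BRCA2 R2336H; olaparib 500 nM added 48 h post-transfection, CellTiter-Glo viability 72 h later. Normalized to plate-median negative control; MAD z-scores, gene median, seed-adjusted.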

Sequence	z-score
GCAAUUUCGUGUGAGAGACTT against Rp2h	inactive: -0.396
GUAACUGUCACCCAGAGAATT against Defb10	inactive: 0.388
GGCCAAGCAUCCUGAACAATT against B3galt6	inactive: -0.672
CCUUUCCUAACUUGAUCACTT against Cbr2	inactive: 0.242
GGCUAUGGCAGUUAUCAAATT against Eif2s1	inactive: -1.59
CGGUCCACAUGAUCAUUCCTT against Dlgh2	inactive: 0.267
CUUUUACACCAUCAUGACGTT against Mrgpra5	inactive: -0.487
GGAGACCUUAAAAGAACAUTT against 2310042L06Rik	inactive: 0.267
GGAUCCUGAAACAGUUCAATT against Atm	inactive: 0.389
GGUAAUUUGUAAGGAACCCTT against 4921503C21Rik	inactive: -0.0422
GCGCAGGAUGAGAAGUUCUTT against Slc43a3	inactive: -0.657
CCAAAUGGAGGAGAUUAGCTT against 4930517G15Rik	inactive: 0.223
GGAGCACAGGUCUAUGAACTT against Neu4	inactive: 2.49
GGCAGCUAACAAGACAUGUTT against Vegfc	inactive: 1.32
CCUCAUUUCAAGACUGUUATT against Stk6	inactive: -0.436
GCCCAUCUUCCUAGUGUUUTT against Atp6v0b	inactive: 0.209
GCGAACUGUCCAAAACCAATT against Nr5a2	inactive: -0.341
UGCCGUAGGACUCAUCGGUTT against Olfr151	inactive: 0.948
GGACCAAGCUGUGUACUCUTT against Olfr346	inactive: 1.27
CCAGACAUGAUACUCCGGCTT against Stk22c	inactive: 0.255
GGUGAUGACGAAGGAAUCCTT against Zfpm2	inactive: 1.17
GCAAGAUCCAGCCCUAUCATT against Dub2	inactive: -0.118
GCUGCCUAUUUACUGAUCCTT against Chrm3	inactive: 1.24
GCAAGUACAACCAUUGGUUTT against Bcmo1	inactive: 0.311
CCAUCACUACACGAAAUUGTT against Fgf12	inactive: -0.0505
GGGCAGGAUUCAGGGAACATT against Ntrk3	inactive: 0.906

Sequence	z-score
GCCCAAGCGAUCUUUGCAUTT against Ltap	inactive: -0.325
CGAGAUAUUCGUGGACUAUTT against 6330548G22Rik	inactive: -1.37
CAACUCUCUUGCUCAGACATT against Olfr814	inactive: -1.12
GCGCAACUCCAUGAGGAGATT against Kcnj8	inactive: -0.0935
GCAAGAUCUGUAUGUCCGCTT against Ebf3	inactive: -0.0362
GCAUUAGGUAAAACUCUUATT against 4932443D16Rik	inactive: 0.994
UUGCAUUACGUGUGGUAUGTT against Mustn1	inactive: -0.432
CCAGGUGAAAACCAGGAUATT against Olfr205	inactive: 0.33
GGAACCACAUGACUUCAGCTT against Tctex1	inactive: -0.00883
GCCCAUCUGAUGAAUACAATT against 2610012O22Rik	inactive: -0.299
GGCCAUUGCCUCUUCUACUTT against Plekha4	inactive: 0.227
GGUCACUAUCUCUGAUUUCTT against Bpil1	inactive: 0.402
GGAACACACCAUCAUCCAGTT against H2-Ea	inactive: -0.373
GGCUCAUUCCUCUUCUUCCTT against Serhl	inactive: 2.98
GCAUUCAGAAUGAGCUGACTT against Nfasc	inactive: -0.0641
GCCGGAAGAUAAGGCUCAUTT against Gap43	inactive: -1.62
GGAAGUCAAUCAGAGUCUGTT against Chd1	inactive: -1.05
GCUUUCAGAUGGCUUUAAUTT against Psmc6	inactive: -2.89
CCACCUUUCGUGCAUUAUCTT against Coro6	inactive: 1.06
CCAUGUGUAAAGGGAGAAATT against Nxph2	inactive: 0.765
CCCACGAUACUCAAUUUUCTT against 1700006J14Rik	inactive: 0.872
GGUUAAAAUGUUGAUUGCUTT against Ndrg4	inactive: 0.116
GGAGAAAGAUGGCAUAAUGTT against Slitrk6	inactive: 0.284
GGUAGAGCGACAACUGGAUTT against 9530058B02Rik	inactive: -0.831
GGCUCAAAGAAUAUGCCAATT against E130016E03Rik	inactive: 2.64
GCACUUUCCUAAUGGUCCUTT against Ifnab	inactive: 0.429

Sequence	z-score
CCACAUUCUAGGUAUCUUGTT against Mapk3	inactive: 0.255
GGCAUCUCUAUACCUGUCUTT against Adrb3	inactive: -1.24
GGCCUGGAUAACAGAAAAUTT against Rbp7	inactive: -1.16
GGUCGUCUGAUUUUUGAUATT against Atp1a1	inactive: -0.874
GCACUUUGACAUUUUGGUATT against Arl7	inactive: -0.0589
CCUAAAAGCCAUUAUCAAATT against Abce1	inactive: 0.00585
CGUAUAUCCGGUCAGAAGATT against Cnot4	inactive: 3.54
GGUGCAAAACAUGUCUCAATT against Olfm1	inactive: 0.457
GCUGGAGGACUCAUGUUCATT against 1500031M22Rik	inactive: -0.588
GCCCUUGAAUAGAAGACAGTT against Gosr2	inactive: 1.93
GCAUGGAAUAAGUACAUUUTT against Slc1a1	inactive: 0.883
GGUUAUAUUAUGUAGCCUATT against Zfp393	inactive: 0.947
UAUUGUCACCGUCUUAGGCTT against Olfr1028	inactive: -1.4
GGUGGUUUUCAGCAAGUACTT against Pde9a	inactive: -1.38
CCUCCCAUGGUUCUUUCGUTT against Atp5g2	inactive: -1.01
GGCCUUUCAGACUGUAUUGTT against Npr2	inactive: -1.1
GGCAAAAUCGUGGUUUCACTT against Cd53	inactive: 0.444
GCGCAUACAGGAAUUUUUATT against Helb	inactive: 4.36
GGUUAAAGGUGUCUAUAAUTT against 4931400A14Rik	inactive: -0.00947
GCUGACCGUUACAUCACCATT against Mc2r	inactive: -0.811
GGUACUCUGGAGCUUCAAGTT against 2900092E17Rik	inactive: -0.232
GGCACCAAUUACAAGAAAATT against V1rg10	inactive: -1.65
GGGCUGUUCUAAUUCCUUCTT against Il17f	inactive: 0.391
GGGUUAAAUGCAAUGCAGCTT against Cugbp1	inactive: 0.708
GCUUUAUUCCUACCGGGAUTT against Dgat1	inactive: 0.757
GGAGCUACAAUCUGAAGUATT against 4930403L05Rik	inactive: -0.0543

Copied from the results shown (four entries):
Sequence	z-score
GCAAUUUCGUGUGAGAGACTT against Rp2h	inactive: -0.396
GUAACUGUCACCCAGAGAATT against Defb10	inactive: 0.388
GGCCAAGCAUCCUGAACAATT against B3galt6	inactive: -0.672
CCUUUCCUAACUUGAUCACTT against Cbr2	inactive: 0.242

Additional records.

Sequence	z-score
GGAAGAAACAACAAUGAUCTT against BB146404	inactive: 0.6
GGUUUUUCAAACAAGAGCATT against Slc16a10	inactive: 0.608
GGCGUAUACCGGGAAUCCUTT against Ndrl	inactive: 0.787
CGUAUCAGAUCGGGACUUUTT against Ifnk	inactive: 0.493
GGUGAAACGCAAAAUAUUCTT against Klkb1	inactive: 2.45
CGAUGGGACCAAGAUUAGUTT against BC027127	inactive: -0.013
GGAGAUAUUUUUCUUGUCCTT against Vcp	inactive: -3.1
GGCUCAGUAAGGACUCUGATT against Tac2	inactive: 0.221
UGGGUGAUCUCUGUAAUAATT against LOC387334	inactive: -1.59
CGGUCAACAUCAAUGGUAATT against Gkn1	inactive: -1.21
GGCUCUUUCAACGUAAAUUTT against 6030441H18Rik	inactive: -0.877
GCUACAUCUCAGAAAUCGGTT against Tbn	inactive: 0.131
GGCCUUUGGUACAUGUAGUTT against Olfr692	inactive: 0.285
GGAUUCAAAAAAAAAUCGCTT against A2m	inactive: 1.46
CCCAUCUUCGUAAAGAGAATT against Mtx1	inactive: 0.497
CCCUUAGGAAACAUGUGGATT against 4930519G04Rik	inactive: -0.75
GGACUUAGACAUCCACCUCTT against 1700034O15Rik	inactive: -0.799
GGAUACAAUCCGAAUGAUGTT against 2610208E05Rik	inactive: 0.718
GGCUUCACUAUACGAGAGATT against Nical	inactive: 0.501
GCUACCUAUGCCAAUAUCATT against Efemp1	inactive: 0.528
GGUUUUUCUAACUUUGGUCTT against D030010E02Rik	inactive: -0.0912
GGCCUGUAGUCAAUGGAAATT against Acvrinp1	inactive: 0.137
CCUUAGAUAUCUACUGUAATT against Trim2	inactive: 0.0568
GCAUUUAUUACUGUGGAGATT against Olfr1467	inactive: 0.795
CGCCGAAACACUCGUUAUATT against 1110012E06Rik	inactive: 0.281
GGAACACUCUGAAUUCAUUTT against Cxcl15	inactive: -0.473
